End groups of sequences in plain letters are not given here.
assay: general procedure: Fmoc solid-phase peptide synthesis; HBTU; details: whole synthesis, HPLC A/A %

Sequence	final HPLC purity [%]
EISGPAEPASPPETTTTAQETSAAAVQGTAKVT (listed as Homo sapiens)	99.53
EISGPAEPASPPETTTTAQETSAAAVQGTAKVTSSRQELNPLKSIVEKSILLTEQALAKA (listed as Homo sapiens)	87.47
QGTAKVTSSRQELNPL (listed as Homo sapiens)	98.01
QGTAKVTSSRQELNPLKSIVEKSILLTEQALAKA (listed as Homo sapiens)	99.26
QGTAKVTSSRQELNPLKSIVEKSILLTEQALAKAGKGMHGGVPGG (listed as Homo sapiens)	96.88
QGTAKVTSSRQELNPLKSIVEKSILLTEQALAKAGKGMHGGVPGGKQFIENGSEF (listed as Homo sapiens)	95.15
VQGTAKVTSSRQELNPLKSIVEKSILLTEQALAKA (listed as Homo sapiens)	96.207

— patent US8383130B2 (Senju Pharmaceutical Co., Ltd., priority 2008, dated 2013)
